## Results of single-concentration screens

Protein sequences, listed by entry. Tags and fused reporters are not part of them. Residues count along the entry.
UniProt Q8IDJ8, 1-583: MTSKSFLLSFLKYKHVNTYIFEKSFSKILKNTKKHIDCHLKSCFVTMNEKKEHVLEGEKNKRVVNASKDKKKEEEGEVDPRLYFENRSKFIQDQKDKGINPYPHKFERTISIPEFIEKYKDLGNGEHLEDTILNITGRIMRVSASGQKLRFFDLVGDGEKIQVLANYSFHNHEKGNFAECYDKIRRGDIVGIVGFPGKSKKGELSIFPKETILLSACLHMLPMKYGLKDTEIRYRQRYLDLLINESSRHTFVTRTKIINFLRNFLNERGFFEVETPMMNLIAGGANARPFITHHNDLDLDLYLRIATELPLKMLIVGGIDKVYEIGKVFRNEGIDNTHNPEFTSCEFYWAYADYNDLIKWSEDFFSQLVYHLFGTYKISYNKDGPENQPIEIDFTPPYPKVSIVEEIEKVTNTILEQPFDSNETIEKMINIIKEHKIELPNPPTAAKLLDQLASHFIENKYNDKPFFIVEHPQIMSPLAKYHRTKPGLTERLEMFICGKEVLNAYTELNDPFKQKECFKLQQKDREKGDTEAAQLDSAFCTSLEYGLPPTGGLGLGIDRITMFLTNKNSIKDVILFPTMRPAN
UniProt I6X8D2, whole entry: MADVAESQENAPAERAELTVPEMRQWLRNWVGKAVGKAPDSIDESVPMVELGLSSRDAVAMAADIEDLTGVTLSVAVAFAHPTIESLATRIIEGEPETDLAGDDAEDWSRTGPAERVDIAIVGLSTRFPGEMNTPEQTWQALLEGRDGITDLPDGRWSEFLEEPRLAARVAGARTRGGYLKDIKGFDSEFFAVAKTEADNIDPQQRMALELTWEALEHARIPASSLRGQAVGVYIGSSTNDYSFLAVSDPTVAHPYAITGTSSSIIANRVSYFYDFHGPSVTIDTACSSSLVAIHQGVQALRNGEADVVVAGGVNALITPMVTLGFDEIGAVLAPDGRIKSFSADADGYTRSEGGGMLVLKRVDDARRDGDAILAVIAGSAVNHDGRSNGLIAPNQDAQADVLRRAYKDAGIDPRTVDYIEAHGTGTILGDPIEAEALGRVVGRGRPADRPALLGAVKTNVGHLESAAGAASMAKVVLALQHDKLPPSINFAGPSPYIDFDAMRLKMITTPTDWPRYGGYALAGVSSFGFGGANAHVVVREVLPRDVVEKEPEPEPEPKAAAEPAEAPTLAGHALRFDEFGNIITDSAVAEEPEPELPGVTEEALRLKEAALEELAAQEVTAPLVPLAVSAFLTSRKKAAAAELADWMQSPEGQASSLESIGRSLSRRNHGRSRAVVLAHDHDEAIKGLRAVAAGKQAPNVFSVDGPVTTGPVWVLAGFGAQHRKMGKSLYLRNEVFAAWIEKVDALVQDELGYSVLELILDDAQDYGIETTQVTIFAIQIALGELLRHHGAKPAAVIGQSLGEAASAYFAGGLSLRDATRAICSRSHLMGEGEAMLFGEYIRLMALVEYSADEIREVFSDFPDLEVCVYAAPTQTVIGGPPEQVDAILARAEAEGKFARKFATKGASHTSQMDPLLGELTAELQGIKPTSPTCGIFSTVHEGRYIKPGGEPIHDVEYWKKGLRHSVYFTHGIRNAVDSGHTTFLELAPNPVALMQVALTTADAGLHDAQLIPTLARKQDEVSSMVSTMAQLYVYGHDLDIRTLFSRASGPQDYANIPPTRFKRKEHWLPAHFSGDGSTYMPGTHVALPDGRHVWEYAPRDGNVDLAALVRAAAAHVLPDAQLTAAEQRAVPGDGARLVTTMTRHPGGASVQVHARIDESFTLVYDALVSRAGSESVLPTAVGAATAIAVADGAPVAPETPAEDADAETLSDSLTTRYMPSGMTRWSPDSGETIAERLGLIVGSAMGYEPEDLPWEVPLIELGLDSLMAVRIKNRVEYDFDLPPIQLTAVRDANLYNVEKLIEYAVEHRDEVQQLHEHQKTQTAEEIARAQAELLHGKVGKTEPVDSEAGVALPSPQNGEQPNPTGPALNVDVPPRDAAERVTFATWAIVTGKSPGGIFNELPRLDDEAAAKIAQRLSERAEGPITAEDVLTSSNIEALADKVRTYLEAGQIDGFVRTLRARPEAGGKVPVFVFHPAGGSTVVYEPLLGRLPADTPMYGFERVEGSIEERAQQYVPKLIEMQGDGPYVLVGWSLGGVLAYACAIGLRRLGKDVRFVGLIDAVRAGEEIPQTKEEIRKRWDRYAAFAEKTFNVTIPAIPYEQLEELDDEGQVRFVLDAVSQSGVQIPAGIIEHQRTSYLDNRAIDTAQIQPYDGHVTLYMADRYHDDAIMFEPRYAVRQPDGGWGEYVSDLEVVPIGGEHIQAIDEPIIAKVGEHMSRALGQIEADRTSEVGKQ
UniProt P9WFT3, whole entry: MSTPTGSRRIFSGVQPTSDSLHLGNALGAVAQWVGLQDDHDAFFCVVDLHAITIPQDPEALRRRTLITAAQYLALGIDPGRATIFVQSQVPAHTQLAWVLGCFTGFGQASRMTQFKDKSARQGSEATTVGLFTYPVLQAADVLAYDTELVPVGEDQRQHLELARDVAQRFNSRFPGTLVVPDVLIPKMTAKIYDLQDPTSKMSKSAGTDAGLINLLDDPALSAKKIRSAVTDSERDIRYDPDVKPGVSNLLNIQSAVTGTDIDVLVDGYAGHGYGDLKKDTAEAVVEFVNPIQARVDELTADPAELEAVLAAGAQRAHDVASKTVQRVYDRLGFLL
UniProt Q4DA54, 1-478: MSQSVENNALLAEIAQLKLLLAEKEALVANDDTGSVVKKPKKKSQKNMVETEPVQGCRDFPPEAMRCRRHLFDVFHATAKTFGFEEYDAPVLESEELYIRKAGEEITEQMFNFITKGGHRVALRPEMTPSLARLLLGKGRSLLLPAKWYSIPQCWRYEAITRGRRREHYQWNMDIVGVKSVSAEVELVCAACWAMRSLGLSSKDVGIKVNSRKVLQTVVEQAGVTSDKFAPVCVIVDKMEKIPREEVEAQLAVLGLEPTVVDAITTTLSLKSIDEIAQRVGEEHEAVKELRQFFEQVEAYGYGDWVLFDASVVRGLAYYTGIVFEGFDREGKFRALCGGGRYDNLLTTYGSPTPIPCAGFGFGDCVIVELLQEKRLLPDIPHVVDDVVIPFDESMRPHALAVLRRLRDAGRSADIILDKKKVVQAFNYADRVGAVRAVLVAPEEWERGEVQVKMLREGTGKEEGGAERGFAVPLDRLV

Data taken from ChEMBL document CHEMBL3988442, “University of Dundee, Small-Polar-MMV Screening Library” (2021).

Values are the deposited “Percent Effect”, in %.
The controls that fix the scale are not given in the record; negative values are as filed.
The compounds are a random part of those screened.
A dash means the value is not listed here; it may have been measured.

PfKRS1: 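Enzyme assay of the cytosolic lysyl-tRNA synthetase in 384-well plates, read by luminescence. Target: Lysine-tRNA ligase, Plasmodium falciparum 3D7 (UniProt Q8IDJ8). Tested at 30 µM. Direction is inferred from only a few compounds that gave an IC50; most scored high, so higher reads as stronger inhibition. About 69,000 compounds were tested under these conditions; 0.071% (about 49) showed 50% or more at least once.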
Pks13 thioesterase: 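Polyketide synthase Pks13, Mycobacterium tuberculosis (UniProt I6X8D2). Enzyme assay of the thioesterase domain of polyketide synthase 13; the read-out is not stated. Concentration: 30 µM. Higher reads as stronger inhibition (inferred from which compounds were picked for retests). Size under these conditions: about 67,000 compounds, about 300 of them at 50% or above in at least one test.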
MtTrpRS: 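Enzyme assay of tryptophanyl-tRNA synthetase; the read-out is not stated. Target: Tryptophan-tRNA ligase, Mycobacterium tuberculosis (UniProt P9WFT3). Concentration: 10 µM. Higher most likely means stronger inhibition; the record gives no direction and few retests gave an IC50. Of about 65,000 compounds tested this way, about 64 (0.098%) reached 50% or more in at least one test.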
TcHisRS: 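Histidine-tRNA ligase, Trypanosoma cruzi CL Brener (UniProt Q4DA54). Enzyme assay of histidyl-tRNA synthetase; the read-out is not stated. Tested at 30 µM. Direction is inferred from retests: higher values go with stronger inhibition. Size under these conditions: about 69,000 compounds, about 31 of them at 50% or above in at least one test.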

| # | SMILES | PfKRS1 | Pks13 thioesterase | MtTrpRS | TcHisRS |
|---|---|---|---|---|---|
| 1 | `CC(C)N1CCC(Nc2ccn(Cc3ccccn3)n2)C1=O` (centres undefined) | 3.432 | -14.52 | -0.9279 | 1.622 |
| 2 | `Cc1cccc(OC2CCN(C(=O)c3ccc4c(c3)OCO4)CC2)n1` | 1.231 | -9.432 | 1.36 | 1.212 |
| 3 | `CC(C)c1ccc(CNC(c2ccc(F)cn2)C(C)C)cc1` (centres undefined) | 0.3026 | -2.184 | 1.468 | 4 |
| 4 | `Cc1cc(=O)n2ncnc2n1CC(O)c1cc(Cl)ccc1Cl` (centres undefined) | -0.3282 | - | -0.7524 | 0 |
| 5 | `O=C(NCC1(O)CCC1)c1cccc(-n2cccn2)c1` | 2.082 | - | 4.078 | 2.97 |
| 6 | `COc1cccc(Cl)c1C(C(=O)O)N1CCC(O)(c2cccnc2)CC1` (centres undefined) | 8.795 | -13.84 | -2.519 | 3.061 |
| 7 | `Cn1cc(C[C@H]2[C@H](O)CCN2C(=O)c2ccsc2)cn1` | 3.045 | -12.44 | 2.033 | 5.882 |
| 8 | `CN(Cc1ccccc1F)C(=O)c1cc(Cl)c[nH]1` | 7.042 | 6.187 | 0.8039 | 5.941 |
| 9 | `CNc1nc(C)c(C(=O)N2CCCCC2CN2CCCCCC2)s1` (centres undefined) | 2.872 | -31.62 | -4.053 | 3.825 |
| 10 | `CN(Cc1ccccc1CN1CCCC1)C(=O)c1c[nH]c(=O)[nH]1` | 6.561 | -25.39 | -2.062 | -2.128 |
| 11 | `O=C(Cn1cnc2ccsc2c1=O)NCCCc1nnc2ccccn12` | 0.4249 | 25.4 | -0.5424 | -2.484 |
| 12 | `O=C(c1cccc(F)c1)N1CCCN(Cc2cscn2)CC1` | -1.97 | -28.86 | 3.01 | 3.134 |
| 13 | `Cc1cc(C(=O)N2CCCN(c3nccs3)CC2)c(C)n1C(C)C` | 0.411 | -13.03 | -6.005 | 5.155 |
| 14 | `Cc1noc(C)c1CN1CC[C@H]2O[C@@H](C(=O)N3CCCC3)CC[C@H]21` | 1.91 | -15.89 | 4.182 | 4.478 |
| 15 | `O=c1n(Cc2ccccc2F)nc2ncccn12` | -2.184 | 0.7599 | 2.087 | 14 |
| 16 | `Cc1nc(C)n(C2CCCN(C(=O)c3ccccc3C)C2)n1` (centres undefined) | 2.151 | -12.64 | 0.7037 | 2.642 |
| 17 | `Cn1nc(C#N)c2c1CN(C(=O)c1nc[nH]n1)CCC2` | 2.901 | -48.28 | -7.441 | -195.9 |
| 18 | `CNS(=O)(=O)c1cc(C)c2[nH]c(=O)cc(C)c2c1` | -4.248 | -9.239 | -0.8158 | -1.22 |
| 19 | `N#Cc1ccsc1NC(=O)CN1CCn2c(nnc2C2CC2)C1` | -2.102 | -8.634 | -1.16 | 4.571 |
| 20 | `CC(C)N1CCC2(CCCN(C(=O)c3cncn3C)C2)CC1` | 1.461 | -30.61 | 5.911 | 4.908 |
| 21 | `O=C1NCCCCC1Sc1ccc(F)c(F)c1` (centres undefined) | 8.468 | -2.801 | -0.9646 | 9.901 |
| 22 | `Cc1nccc(CN2CCC(c3nnsc3S(C)(=O)=O)CC2)n1` | 7.004 | -23.01 | -0.5853 | 2.703 |
| 23 | `COc1cccc(N2CCN(CC(O)c3cc(C)sc3C)CC2)c1` (centres undefined) | 3.054 | -60.57 | -3.094 | 1.622 |
| 24 | `O=C1CCNc2ccccc2CN1Cc1ccco1` | 9.022 | 11.08 | - | 2.247 |
| 25 | `OC(CN1CCC(c2ccn[nH]2)CC1)c1cc(F)ccc1F` (centres undefined) | -1.423 | -8.714 | -4.856 | 5.233 |
| 26 | `CC/C=C(/C)C(=O)N1CCN(C2=NCC(C)S2)CC1` (centres undefined) | 2.743 | -16.3 | -3.636 | 12.26 |
| 27 | `OCc1nnn2c1CN(Cc1cccnc1)CCC2` | 4.206 | 3.12 | 4.242 | 7.975 |
| 28 | `Cn1cc(C(=O)N2CCCC(c3cc(O)n(C)n3)C2)cn1` (centres undefined) | 1.35 | -5.487 | - | 8.511 |
| 29 | `Cc1ccc(NC(=O)[C@@H]2C[C@H](C(=O)O)CN(Cc3sccc3C)C2)cn1` | -1.071 | -50.54 | 17.23 | -1.493 |
| 30 | `O=C(NCCNc1cncc(Br)c1)c1ccc(O)cc1` | 1.068 | -18.23 | 2.27 | 3.947 |
| 31 | `CC(C)(C)C(=O)N1CCCc2c(cnn2-c2ccccc2)C1` | -0.6798 | -25.77 | 3.594 | 8.812 |
| 32 | `Cc1cc(NS(=O)(=O)c2c[nH]c3ncccc23)no1` | 0.4777 | -17.54 | 6.824 | 5.319 |
| 33 | `CCc1nc(CN2CCCN(C(=O)CC3CCCC3)CC2)cs1` | -2.145 | -1.247 | 0.3298 | 5.833 |
| 34 | `CCN(CCO)C(=O)Nc1ccc(OCCOC)nc1` | 0.9356 | -5.843 | 2.147 | 2.564 |
| 35 | `Cc1ccc2c(c1)c(C)cc(=O)n2CCC#N` | 4.05 | -10.85 | 2.25 | 0.5181 |
| 36 | `CCc1nsc(N2CCCN(C(=O)c3ccc(OC)cc3)CC2)n1` | 0.4338 | -14.29 | -0.8895 | 3.448 |
| 37 | `Cn1cnc(S(=O)(=O)N2CC3(CCN(c4ccccc4)C3)C2)c1` | 0.8675 | -44.66 | - | 11.56 |
| 38 | `CCOCC1CN(S(=O)(=O)CC)Cc2cnn(CC3CC3)c21` (centres undefined) | 6.009 | -9.42 | -2.402 | 1.754 |
| 39 | `Cc1ccc(=O)n(CC2(O)CCN(Cc3cccs3)CC2)n1` | 3.118 | 2.435 | - | -14.89 |
| 40 | `COc1cc(F)ccc1-c1cnc(N)cn1` | -1.67 | 9.69 | -1.718 | 15.29 |
| 41 | `Cn1ccc(C(=O)N2CCC[C@]3(C[C@@H](OCc4ccccn4)CO3)C2)n1` | -1.269 | -25.63 | 6.888 | 2.762 |
| 42 | `COC(=O)c1ccc(N2CCN(C(=O)C(C)C)C(C)C2)cc1` (centres undefined) | 1.045 | -13.5 | 0.6849 | 2.532 |
| 43 | `O=C(c1ccoc1)N1CCC2(CCCN(c3ncc(F)cn3)C2)C1` (centres undefined) | 5.559 | -15.21 | - | 4.233 |
| 44 | `Cc1cc(NCc2cc(C)oc2C(F)(F)F)n2nc(C)cc2n1` | 7.042 | -7.878 | -2.899 | 12 |
| 45 | `O=C1CSC(c2ccsc2)c2sccc2N1` (centres undefined) | -7.079 | -181.6 | 8.04 | -0.5464 |
| 46 | `CCc1cnc(C)nc1N1CCS(=O)(=O)CC1` | 11.37 | 17.56 | -0.08944 | 5.747 |
| 47 | `Cc1ccc(OCC(C)NS(C)(=O)=O)cc1` (centres undefined) | 1.764 | -32.48 | -9.605 | 1.111 |
| 48 | `CCn1nc(C)c2ncnc(N(C)Cc3ccco3)c21` | -2.408 | 11.13 | -0.678 | 1.242 |
| 49 | `CCSc1cc(C(=O)N(Cc2cnn(C)c2)C(C)C)ccn1` | -2.628 | -13.56 | -3.038 | 2.381 |
| 50 | `Cc1cc(C)n(CC2CCCN2C(=O)CCc2ccncc2)n1` (centres undefined) | -1.15 | -26.44 | -4.708 | 2.959 |
| 51 | `COCC(=O)N1CC[C@@H]2CN(Cc3cccnc3)S(=O)(=O)[C@@H]2CC1` | 5.607 | -12.89 | - | 9.524 |
| 52 | `O=C1CCC[C@]2(CN(S(=O)(=O)C3CCCCC3)C[C@H]2c2cccnc2)N1` | 3.173 | 0.9165 | -1.795 | 5.639 |
| 53 | `CN(C)C(=O)COCC1CN(S(C)(=O)=O)Cc2ncn(C)c21` (centres undefined) | 4.422 | -23.08 | 3.539 | 4.673 |
| 54 | `CC(C)CN1CCC(C(=O)Nc2cc(C(F)(F)F)c[nH]c2=O)CC1` | 6.596 | -8.849 | -1.039 | 1.527 |
| 55 | `CC1=Nc2c(c(O)nn2C(C)C)C(c2cnn(C)c2)S1` (centres undefined) | 3.408 | -12.8 | -4.581 | 17.16 |
| 56 | `COc1cccc(COC(C)C(=O)N(C)Cc2nnc3n2CCC3)c1` (centres undefined) | 0.7709 | -20.66 | -2.816 | 6.863 |
| 57 | `CN(c1ncnc2c1cnn2C)C1CCCN(c2cccnn2)C1` (centres undefined) | -2.167 | 5.803 | -4.62 | 28.87 |
| 58 | `CC(C)CC(C)N(C)C(=O)c1nc(S(C)(=O)=O)n2ccccc12` (centres undefined) | 0.6894 | -18.93 | -3.476 | 2.639 |
| 59 | `Cc1cc(C)n(CC(=O)N2CCC(c3cc4cccnc4[nH]3)CC2)n1` | -0.7725 | -12.81 | 11.58 | -9.302 |
| 60 | `CCOCCCNC(=O)c1cc(C)nc(N2CCCC2)n1` | -2.251 | -3.067 | 20.3 | 0.5464 |
| 61 | `CCN(CC)c1ncc(CNC2CCc3ncnn3C2)s1` (centres undefined) | -1.007 | -38.85 | -6.295 | 4.972 |
| 62 | `CCCn1nnnc1CN(c1ccc(N2CCOCC2)cc1)C(C)C` | 9.451 | -20.44 | -0.4656 | 3.933 |
| 63 | `CN(CCCOc1ccccc1)C(=O)c1csc(-c2nnc[nH]2)n1` | 3.191 | -42.37 | 1.29 | 11.11 |

For reference, 6 entries once more:

Result for COc1cc(F)ccc1-c1cnc(N)cn1 was PfKRS1: -1.67%; Pks13 thioesterase: 9.69%; MtTrpRS: -1.718%; TcHisRS: 15.29%.
Result for Cn1nc(C#N)c2c1CN(C(=O)c1nc[nH]n1)CCC2 was PfKRS1: 2.901%; Pks13 thioesterase: -48.28%; MtTrpRS: -7.441%; TcHisRS: -195.9%.
Result for Cc1cccc(OC2CCN(C(=O)c3ccc4c(c3)OCO4)CC2)n1 was PfKRS1: 1.231%; Pks13 thioesterase: -9.432%; MtTrpRS: 1.36%; TcHisRS: 1.212%.
Result for CCc1cnc(C)nc1N1CCS(=O)(=O)CC1 was PfKRS1: 11.37%; Pks13 thioesterase: 17.56%; MtTrpRS: -0.08944%; TcHisRS: 5.747%.
Result for Cc1ccc(=O)n(CC2(O)CCN(Cc3cccs3)CC2)n1 was PfKRS1: 3.118%; Pks13 thioesterase: 2.435%; TcHisRS: -14.89%.
Result for OCc1nnn2c1CN(Cc1cccnc1)CCC2 was PfKRS1: 4.206%; Pks13 thioesterase: 3.12%; MtTrpRS: 4.242%; TcHisRS: 7.975%.